Data reported in PubChem BioAssay AID504467 (National Center for Advancing Translational Sciences (NCATS), 2011).
Among all 330,000 compounds or so, about 7,700 (2.3%) were called active. The shares of active, inactive and inconclusive entries below differ from those in the screen. The call rests on the fitted dose curve; in most records, active means well fitted inhibition curve with a large enough effect; inconclusive means small, poorly fitted or top-dose-only effect, or effect the other way; inactive means flat fitted curve, though single readings scatter. A potency beside an inconclusive call is a rough fit, not a confirmed value.

Test: qHTS screen for small molecules that inhibit ELG1-dependent DNA repair in human embryonic kidney (HEK293T) cells expressing luciferase-tagged ELG1; further: nearly all actives have a fitted effect of over 55% in size
Conditions: HEK293T ELG1-luciferase reporter, luminescence, 16 h, DNA damage induced by 5-fluorouridine; activity change, negative = inhibition: at 46.1 µM (top of the series)
Procedure, shortened: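 DMSO vehicle served as the neutral condition. Each well held 2,000 cells given 5-fluorouridine plus compound; after 16 hr at 37 °C/5% CO2, ONE-Glo was added and luciferase measured 30 min later.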
On the % scale 0 is the no-effect control and ±100 the full control effect; potency means the concentration at half of the fitted maximal effect.

SMILES | Potency | activity change, negative = inhibition
Cc1ccc(NC(=O)c2ccc3ccccc3n2)cc1S(=O)(=O)N(C)C | inconclusive: 4.11 µM [activator, full curve] | –
CCc1c(C(=O)Nc2ccncc2)csc1C | inconclusive: 5.17 µM [inhibitor, partial curve, poor fit] | –
CC1CN(CC(O)COC(c2ccc(Cl)cc2)c2ccc(Cl)cc2)CC(C)O1 (stereo not given) | active: 18.4 µM | –
Cc1ccccc1-n1c(SCc2csc(Nc3ccccc3)n2)nnc1-c1cccnc1 | inconclusive: 20.6 µM [inhibitor, single point] | –
O=C(CSc1ncn[nH]1)N1N=C2/C(=C/c3ccccc3)CCCC2C1c1ccccc1 (stereo not given) | – | inactive: -17.2%
COc1ccc2oc(=O)c(C(=O)Nc3cccc(C(C)=O)c3)cc2c1 | inconclusive: 7.08 µM [activator, full curve, poor fit] | –
COc1cccc(NS(=O)(=O)NC(=O)c2c[nH]c3ccccc23)c1 | inconclusive: 29.1 µM [activator, single point] | –
COc1ccc(/C=N/Nc2nc(Nc3ccccc3)nc(N3CCCCC3)n2)c(OC)c1 | active: 20.6 µM | –
CCSc1ccccc1C(=O)N1CCC2(CC1)CC(=O)c1ccccc1O2 | inconclusive: 10.3 µM [inhibitor, single point] | –
COC(=O)CN(c1cc([N+](=O)[O-])ccc1OC)S(C)(=O)=O | – | inactive: -12%
COc1cc(OC)nc(N/N=C(\c2ccccc2)c2ccncc2)n1 | inconclusive: 23.1 µM [inhibitor, single point] | –
O=C(Nc1ccccc1)c1ccn[nH]1 | inconclusive: 7.08 µM [activator, full curve] | –
CCOc1ccc(N2C(=O)CC(N(Cc3ccco3)C(C)=O)C2=O)cc1 (stereo not given) | inconclusive: 23.1 µM [activator, single point] | –
OCCNC(=S)Nc1ccc(Oc2ccccc2)cc1 | – | inactive: -22.1%
O=C(NCC(=O)N1CCCC(C(F)(F)F)C1)c1ccc2ccccc2c1 (stereo not given) | – | inactive: 27.5%
Cc1ccc(S(=O)(=O)c2c(N)n(CCCN(C)C)c3nc4ccccc4nc23)cc1 | inconclusive: 18.3 µM [activator, single point] | –
COc1ccc2c(c1)[C@H]1[C@H](CO2)[C@H](c2ccccc2)[C@]2(C)C(=O)Nc3ccc(C)cc3C(=O)N12 | – | inactive: -25.3%
COc1cccc(NC(=O)CNC(=O)N2CC(=O)Nc3ccccc32)c1 | inconclusive: 14.6 µM [activator, partial curve] | –
O=C(Nc1ccc2c(c1)C(=O)N(c1ccccc1)C2=O)c1cccs1 | inconclusive: 23.1 µM [activator, partial curve, poor fit] | –
Cc1ccc(C)c(-c2ccc(=O)n(Cc3ccc(F)cc3Cl)n2)c1 | – | inactive: -1.77%
O=C(CN1CCN(c2ccccn2)CC1)Nc1ccccc1C(=O)Nc1ccccc1 | inconclusive: 5.8 µM [inhibitor, partial curve] | –
CCC(=O)N1CCc2cc(S(=O)(=O)NC(C(=O)NC3CCCc4ccccc43)C(C)C)ccc21 (stereo not given) | – | inactive: 7.42%
CCOc1ccc(CC(=O)NNC(=O)/C=C/C(=O)O)cc1 | – | inactive: 16.8%
Cc1csc(NC(=O)COc2ccc3c(C)cc(=O)oc3c2)n1 | – | inactive: 23.1%
O=C(CSc1nnc2ccccn12)NC(=O)c1ccccc1Cl | – | inactive: 0%

Structures shown so far that contain a halogen:
SMILES | Potency | activity change, negative = inhibition
CC1CN(CC(O)COC(c2ccc(Cl)cc2)c2ccc(Cl)cc2)CC(C)O1 (stereo not given) | active: 18.4 µM | –
O=C(NCC(=O)N1CCCC(C(F)(F)F)C1)c1ccc2ccccc2c1 (stereo not given) | – | inactive: 27.5%
Cc1ccc(C)c(-c2ccc(=O)n(Cc3ccc(F)cc3Cl)n2)c1 | – | inactive: -1.77%
O=C(CSc1nnc2ccccn12)NC(=O)c1ccccc1Cl | – | inactive: 0%

The listing continues.

SMILES | Potency | activity change, negative = inhibition
Cc1cc(NC(=O)COC(=O)CCS(=O)(=O)c2cc(Cl)ccc2Cl)no1 | – | inactive: -1.7%
Cc1ccccc1NC(=O)c1sc2nc3c(c(-c4ccco4)c2c1N)CCC3 | active: 23.1 µM | –
COC(=O)C1=Cc2cc(OC)cc([N+](=O)[O-])c2OC1N1CCOCC1 (stereo not given) | – | inactive: 11.5%
COc1cc(OC)c(C(=O)N2CCCC2)cc1OC | inconclusive: 13 µM [inhibitor, partial curve, poor fit] | –
O=C(O)CCCN1C(=O)c2ccc(C(=O)c3cccc([N+](=O)[O-])c3)cc2C1=O | – | inactive: 8.58%
COc1ccccc1CNC(=O)CSc1n[nH]c(N)n1 | – | inactive: 7.76%
CN(CCO)c1ccc(/C=N/Nc2nncc3ccccc23)cc1 | inconclusive: 0.231 µM [activator, full curve] | –
Cc1cc(C(=O)OCC(=O)N2CCCCCC2)ccc1[N+](=O)[O-] | – | inactive: -0.0288%
c1ccc(Nc2nc(N3CCOCC3)nc(N3CCOCC3)n2)cc1 | inconclusive: 7.31 µM [inhibitor, partial curve] | –
CCOC(=O)c1c(CSc2ccc(CC)cc2)oc2ccc(O)c(CN(C)C)c12 | – | inactive: -16.2%
Cc1cc(C(=O)N/N=C2\CC(=O)c3ccccc32)c(C)n1-c1ccccc1 | inconclusive: 6.51 µM [activator, full curve] | –
CC1Sc2ccc(S(=O)(=O)CCC(=O)NC3CCCC(C)C3C)cc2NC1=O (stereo not given) | – | inactive: -11.5%
CCOC(=O)CCC(=O)N(CCN(C(=O)CCC(=O)OCC)c1ccccc1)c1ccccc1 | – | inactive: -7.97%
COc1ccc(NC(=O)N2CCCc3ccccc32)cc1 | inconclusive: 18.4 µM [activator, single point] | –
Cc1ccccc1NCc1nnc2n1CCCCC2 | – | inactive: 0.748%
S=C(NC1CCCCCC1)NC1CCCC1 | inconclusive: 6.51 µM [activator, partial curve, poor fit] | –
Cc1cccc(C(=O)Nc2nc3ccc(S(C)(=O)=O)cc3s2)c1 | inconclusive: 4.47 µM [activator, single point] | –
NS(=O)(=O)c1ccc(CCNC(=O)c2ccc[nH]c2=S)cc1 | – | inactive: 4.32%
COCCN(C(=O)CCC(=O)Nc1cc(C)on1)C(C(=O)NC1CCCC1)c1ccccc1C (stereo not given) | – | inactive: 6.38%
Cn1c(SCc2cccc(F)c2)nnc1-c1ccncc1 | – | inactive: 17.5%
Cc1ccccc1S(=O)(=O)Oc1ccc2ccc(O)cc2c1 | inconclusive: 23.1 µM [activator, single point] | –
O=C(COc1ccccc1)Nc1ccc(OC(F)(F)C(F)F)c(NC(=O)COc2ccccc2)c1 | inconclusive: 29.1 µM [activator, single point] | –
Cc1nc2c3cc(F)ccc3n(Cc3ccccc3F)c2s1 | inconclusive: 16.4 µM [activator, single point] | –
O=S(=O)(NCC(c1ccco1)N1CCOCC1)c1ccc(Cl)cc1 (stereo not given) | – | inactive: -6.29%
CSc1ccccc1NC(=O)c1cc(C)on1 | inconclusive: 29.1 µM [activator, single point] | –

SMILES | Potency | activity change, negative = inhibition
COc1ccc(-c2cnnc(N/N=C/c3ccc(OC)c(OC)c3)n2)cc1 | inconclusive: 29.1 µM [inhibitor, single point] | –
CCCCOC(=O)CSc1nc2c(cc1C#N)C(=O)CC(C)(C)C2 | inconclusive: 16.4 µM [activator, partial curve, poor fit] | –
CN(Cc1ccccc1)c1ccc(C(CC(N)=O)NC(=O)Cc2ccc(Br)cc2)cc1[N+](=O)[O-] (stereo not given) | – | inactive: -19.1%
O=C(OCc1nc2ccccc2s1)c1ccc([N+](=O)[O-])o1 | inconclusive: 16.4 µM [activator, partial curve, poor fit] | –
Cc1ccccc1-c1noc(-c2cccs2)n1 | inconclusive: 23.1 µM [activator, partial curve] | –
O=C(/C=C/Nc1ccc(F)c(Cl)c1)c1ccco1 | inconclusive: 7.31 µM [activator, partial curve] | –
COc1cccc(/C=N/NC(=O)CNC(=O)c2ccncc2)c1O | – | inactive: -15.3%
CCC(=O)N1CCN(CCN=CC2=C(O)CC(C)(C)CC2=O)CC1 | – | inactive: 0.457%
CCOC(=O)c1cnc2c(cnn2C)c1Oc1ccc(OC)cc1 | inconclusive: 32.6 µM [inhibitor, single point] | –
COc1ccc(-c2c(C#Cc3ccsc3)c3ccccc3n2C)cc1 | inconclusive: 2.31 µM [activator, partial curve] | –
O=C(N/N=C/c1cccc(F)c1)c1csc2c1CCCC2 | inconclusive: 4.11 µM [activator, full curve] | –
CC(=NC1CCCCC1)C1=C(O)c2ccccc2C1=O | inconclusive: 2.59 µM [activator, partial curve, poor fit] | –
Cc1cc(C(=O)N/N=C/C=C/c2ccc3c(c2)OCO3)n[nH]1 | – | inactive: 4.59%
Cc1c(C(=O)NCc2ccc3c(c2)OCO3)oc2ccc(S(=O)(=O)N3CCCC3)cc12 | active: 7.31 µM | –
O=C(Nc1cc(Sc2nc3ccccc3s2)cc([N+](=O)[O-])c1)c1ccccc1 | inconclusive: 16.4 µM [inhibitor, single point] | –
Cc1ccc(C23CC4CC(CC(C(=O)NC(C)C(=O)O)(C4)C2)C3)cc1 (stereo not given) | – | inactive: -4.93%
O=C(NNC(=S)NCc1ccc(Cl)cc1)c1ccc(Br)o1 | – | inactive: 12.4%
O=C(Cn1cnc2c(nnn2Cc2ccc(F)cc2)c1=O)N1CCCc2ccccc21 | inconclusive: 20.6 µM [inhibitor, partial curve, poor fit] | –
CCOc1ccc2nc(SCc3ccc(F)cc3)sc2c1 | inconclusive: 20.6 µM [activator, single point] | –
COc1ccccc1C(=O)Nc1ccc(S(=O)(=O)Nc2cc(C)on2)cc1 | inconclusive: 14.6 µM [activator, partial curve] | –
CC(=O)c1ccc(-c2ccc(C(=O)NCC(c3ccc(F)cc3)N3CCOCC3)o2)cc1 (stereo not given) | – | inactive: -14.8%
COc1ccccc1/C=C/C(=O)OCC(=O)Nc1c(C)nn(-c2ccccc2)c1C | inconclusive: 20.6 µM [inhibitor, single point] | –
CCOCCCN(C(=O)Cn1nnc(-c2ccc(C)o2)n1)C(C(=O)NC1CCCC1)c1ccc(C)o1 (stereo not given) | – | inactive: 7.11%
CCc1nnc(NS(=O)(=O)c2ccc(NC(=S)NC(=O)c3cccs3)cc2)s1 | inconclusive: 29.1 µM [inhibitor, single point] | –
NC(=O)c1oc2ccccc2c1NC(=O)c1nc2ccccc2s1 | inconclusive: 10.3 µM [activator, partial curve] | –

2 compounds picked at random from those above, as already listed:
SMILES | Potency | activity change, negative = inhibition
CCc1nnc(NS(=O)(=O)c2ccc(NC(=S)NC(=O)c3cccs3)cc2)s1 | inconclusive: 29.1 µM [inhibitor, single point] | –
CC(=NC1CCCCC1)C1=C(O)c2ccccc2C1=O | inconclusive: 2.59 µM [activator, partial curve, poor fit] | –
